From the supplement of paper PMC11237882 come the findings set out here.

This is one part of the list. Values are worked out from sequencing counts and are noisy.

Sequences and labels used below:
T1: Homer1 EVH1 domain
T1 chain: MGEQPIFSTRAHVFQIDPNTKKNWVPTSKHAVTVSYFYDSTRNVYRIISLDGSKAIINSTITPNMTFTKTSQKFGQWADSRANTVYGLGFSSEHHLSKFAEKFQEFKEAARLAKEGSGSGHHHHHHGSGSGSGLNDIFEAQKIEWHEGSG

For the experiment, the target named is T1, Homer1 EVH1 domain. Description: enrichment score (AUC of log2 frequency ratio across FACS sorting rounds) (log2 AUC); higher = stronger enrichment for Homer1 EVH1 binding.
As to EVAHSSLQIVLALAGFIYACYVVECITEEEDSFDFI, the enrichment score is -0.152.
With EQRRRPGLCPPPLELLLLLLFSLGLLHAGDCQQPAQ the figure was 1.99; with RGYRNHRSSRETREYAPPSRGHGYRDYGHSRRHESY, 0.872.
With MANSGLQLLGFSMALLGWVGLVACTAIPQWQMSSYA the figure was 4.01.
On to LSVLRLACADTWLNQVVIFAACVFFLVGPPSLVLVS, for which the enrichment score is -1.44.
In the case of TGFRIFQNTHAIDKYSRLIFPASYIFFNLIYWSVFS, the enrichment score is -3.36.
With MSPVRRWGSPCLFPLQLFSLCWVLSVAQSKTVRYST the figure was 0.397; with MAPENFTRVTEFILTGVSSCPELQIPLFLVFLVLYG, -0.479; with MRKRAPQSEMAPAGVSLRATILCLLAWAGLAAGDRV, 0.786.
With KMVHGVYKKSIFVFTHVLVPVWIIHYYMKYHVSEKP the figure was 0.172; with KKSISYPACLVQCYLFIALVHVEIYILAVMAFDRYM, 2.21; with MHTCCPPVTLEQDLHRKMHSWMLQTLAFAVTSLVLS, -1.76.
With MPLLPSTVGLAGLLFWAGQAVNALIMPNATPAPAQP the figure was 0.599.
Turning to LNICALILGILMTILLPEPSPVSALYPHTLFYDGIQ, the enrichment score amounted to 4.5.
With MTGDCMPVLVLMAAVLTVTGAVPVARLRGALPDARG the figure was 2.68; with NWHLLTNFICVAIFLNFSAIILISNCLVIRQLYRNK, 0.416.
With QRQKLLEQQRREKTENEGRRKFIKNKAWSKQKAKKE the figure was 1.22; with KGMLGLIVYLGMMVGAFLWGGLADRLGRRQCLLICL, 0.934.
For the molecule MARGAALALLLFGLLGVLVAAPDGGFDLSDALPDNE, the enrichment score turned out to be 1.6.
With LSQVYILTILILNVVAFFIICACYIKIYFAVRNPEL the figure was 1.98.
With MATKRLARQLGLIRRKSIAPANGNLGRSKSKQLFDY the figure was 1.69.
Take IGDNDVKDLIGFFILLGGSVLLAANVTLGLWLVTAR: the enrichment score came out at 2.45.
With MMWPMHTPLLLLTALMVAVAGSASAQSRTLAGGIHA the figure was 1.66; with LFDSYAASGMCLLFVAIFECICIGWVYGSNRFYDNI, 1.51; with LEIKALRMKLGPLQFSVLWPYYVLGFGIFLFIVAGT, -1.94.
As for GPYVMMIGKMVANMFYIVVIMALVLLSFGVPRKAIL, the enrichment score was -2.41.
With TLERPPALAMPLPTEGTPPPLSGTPIPVPAYFRHAE the figure was 4.76; with PVQDQLSQSERYLYGSLATLLICLCAVFGLLLLTCT, 1.57.
